# Results as given in article PMC6895206.
# The chains behind the UniProt entries cited, without tags or fusion partners.
# UniProt P97313: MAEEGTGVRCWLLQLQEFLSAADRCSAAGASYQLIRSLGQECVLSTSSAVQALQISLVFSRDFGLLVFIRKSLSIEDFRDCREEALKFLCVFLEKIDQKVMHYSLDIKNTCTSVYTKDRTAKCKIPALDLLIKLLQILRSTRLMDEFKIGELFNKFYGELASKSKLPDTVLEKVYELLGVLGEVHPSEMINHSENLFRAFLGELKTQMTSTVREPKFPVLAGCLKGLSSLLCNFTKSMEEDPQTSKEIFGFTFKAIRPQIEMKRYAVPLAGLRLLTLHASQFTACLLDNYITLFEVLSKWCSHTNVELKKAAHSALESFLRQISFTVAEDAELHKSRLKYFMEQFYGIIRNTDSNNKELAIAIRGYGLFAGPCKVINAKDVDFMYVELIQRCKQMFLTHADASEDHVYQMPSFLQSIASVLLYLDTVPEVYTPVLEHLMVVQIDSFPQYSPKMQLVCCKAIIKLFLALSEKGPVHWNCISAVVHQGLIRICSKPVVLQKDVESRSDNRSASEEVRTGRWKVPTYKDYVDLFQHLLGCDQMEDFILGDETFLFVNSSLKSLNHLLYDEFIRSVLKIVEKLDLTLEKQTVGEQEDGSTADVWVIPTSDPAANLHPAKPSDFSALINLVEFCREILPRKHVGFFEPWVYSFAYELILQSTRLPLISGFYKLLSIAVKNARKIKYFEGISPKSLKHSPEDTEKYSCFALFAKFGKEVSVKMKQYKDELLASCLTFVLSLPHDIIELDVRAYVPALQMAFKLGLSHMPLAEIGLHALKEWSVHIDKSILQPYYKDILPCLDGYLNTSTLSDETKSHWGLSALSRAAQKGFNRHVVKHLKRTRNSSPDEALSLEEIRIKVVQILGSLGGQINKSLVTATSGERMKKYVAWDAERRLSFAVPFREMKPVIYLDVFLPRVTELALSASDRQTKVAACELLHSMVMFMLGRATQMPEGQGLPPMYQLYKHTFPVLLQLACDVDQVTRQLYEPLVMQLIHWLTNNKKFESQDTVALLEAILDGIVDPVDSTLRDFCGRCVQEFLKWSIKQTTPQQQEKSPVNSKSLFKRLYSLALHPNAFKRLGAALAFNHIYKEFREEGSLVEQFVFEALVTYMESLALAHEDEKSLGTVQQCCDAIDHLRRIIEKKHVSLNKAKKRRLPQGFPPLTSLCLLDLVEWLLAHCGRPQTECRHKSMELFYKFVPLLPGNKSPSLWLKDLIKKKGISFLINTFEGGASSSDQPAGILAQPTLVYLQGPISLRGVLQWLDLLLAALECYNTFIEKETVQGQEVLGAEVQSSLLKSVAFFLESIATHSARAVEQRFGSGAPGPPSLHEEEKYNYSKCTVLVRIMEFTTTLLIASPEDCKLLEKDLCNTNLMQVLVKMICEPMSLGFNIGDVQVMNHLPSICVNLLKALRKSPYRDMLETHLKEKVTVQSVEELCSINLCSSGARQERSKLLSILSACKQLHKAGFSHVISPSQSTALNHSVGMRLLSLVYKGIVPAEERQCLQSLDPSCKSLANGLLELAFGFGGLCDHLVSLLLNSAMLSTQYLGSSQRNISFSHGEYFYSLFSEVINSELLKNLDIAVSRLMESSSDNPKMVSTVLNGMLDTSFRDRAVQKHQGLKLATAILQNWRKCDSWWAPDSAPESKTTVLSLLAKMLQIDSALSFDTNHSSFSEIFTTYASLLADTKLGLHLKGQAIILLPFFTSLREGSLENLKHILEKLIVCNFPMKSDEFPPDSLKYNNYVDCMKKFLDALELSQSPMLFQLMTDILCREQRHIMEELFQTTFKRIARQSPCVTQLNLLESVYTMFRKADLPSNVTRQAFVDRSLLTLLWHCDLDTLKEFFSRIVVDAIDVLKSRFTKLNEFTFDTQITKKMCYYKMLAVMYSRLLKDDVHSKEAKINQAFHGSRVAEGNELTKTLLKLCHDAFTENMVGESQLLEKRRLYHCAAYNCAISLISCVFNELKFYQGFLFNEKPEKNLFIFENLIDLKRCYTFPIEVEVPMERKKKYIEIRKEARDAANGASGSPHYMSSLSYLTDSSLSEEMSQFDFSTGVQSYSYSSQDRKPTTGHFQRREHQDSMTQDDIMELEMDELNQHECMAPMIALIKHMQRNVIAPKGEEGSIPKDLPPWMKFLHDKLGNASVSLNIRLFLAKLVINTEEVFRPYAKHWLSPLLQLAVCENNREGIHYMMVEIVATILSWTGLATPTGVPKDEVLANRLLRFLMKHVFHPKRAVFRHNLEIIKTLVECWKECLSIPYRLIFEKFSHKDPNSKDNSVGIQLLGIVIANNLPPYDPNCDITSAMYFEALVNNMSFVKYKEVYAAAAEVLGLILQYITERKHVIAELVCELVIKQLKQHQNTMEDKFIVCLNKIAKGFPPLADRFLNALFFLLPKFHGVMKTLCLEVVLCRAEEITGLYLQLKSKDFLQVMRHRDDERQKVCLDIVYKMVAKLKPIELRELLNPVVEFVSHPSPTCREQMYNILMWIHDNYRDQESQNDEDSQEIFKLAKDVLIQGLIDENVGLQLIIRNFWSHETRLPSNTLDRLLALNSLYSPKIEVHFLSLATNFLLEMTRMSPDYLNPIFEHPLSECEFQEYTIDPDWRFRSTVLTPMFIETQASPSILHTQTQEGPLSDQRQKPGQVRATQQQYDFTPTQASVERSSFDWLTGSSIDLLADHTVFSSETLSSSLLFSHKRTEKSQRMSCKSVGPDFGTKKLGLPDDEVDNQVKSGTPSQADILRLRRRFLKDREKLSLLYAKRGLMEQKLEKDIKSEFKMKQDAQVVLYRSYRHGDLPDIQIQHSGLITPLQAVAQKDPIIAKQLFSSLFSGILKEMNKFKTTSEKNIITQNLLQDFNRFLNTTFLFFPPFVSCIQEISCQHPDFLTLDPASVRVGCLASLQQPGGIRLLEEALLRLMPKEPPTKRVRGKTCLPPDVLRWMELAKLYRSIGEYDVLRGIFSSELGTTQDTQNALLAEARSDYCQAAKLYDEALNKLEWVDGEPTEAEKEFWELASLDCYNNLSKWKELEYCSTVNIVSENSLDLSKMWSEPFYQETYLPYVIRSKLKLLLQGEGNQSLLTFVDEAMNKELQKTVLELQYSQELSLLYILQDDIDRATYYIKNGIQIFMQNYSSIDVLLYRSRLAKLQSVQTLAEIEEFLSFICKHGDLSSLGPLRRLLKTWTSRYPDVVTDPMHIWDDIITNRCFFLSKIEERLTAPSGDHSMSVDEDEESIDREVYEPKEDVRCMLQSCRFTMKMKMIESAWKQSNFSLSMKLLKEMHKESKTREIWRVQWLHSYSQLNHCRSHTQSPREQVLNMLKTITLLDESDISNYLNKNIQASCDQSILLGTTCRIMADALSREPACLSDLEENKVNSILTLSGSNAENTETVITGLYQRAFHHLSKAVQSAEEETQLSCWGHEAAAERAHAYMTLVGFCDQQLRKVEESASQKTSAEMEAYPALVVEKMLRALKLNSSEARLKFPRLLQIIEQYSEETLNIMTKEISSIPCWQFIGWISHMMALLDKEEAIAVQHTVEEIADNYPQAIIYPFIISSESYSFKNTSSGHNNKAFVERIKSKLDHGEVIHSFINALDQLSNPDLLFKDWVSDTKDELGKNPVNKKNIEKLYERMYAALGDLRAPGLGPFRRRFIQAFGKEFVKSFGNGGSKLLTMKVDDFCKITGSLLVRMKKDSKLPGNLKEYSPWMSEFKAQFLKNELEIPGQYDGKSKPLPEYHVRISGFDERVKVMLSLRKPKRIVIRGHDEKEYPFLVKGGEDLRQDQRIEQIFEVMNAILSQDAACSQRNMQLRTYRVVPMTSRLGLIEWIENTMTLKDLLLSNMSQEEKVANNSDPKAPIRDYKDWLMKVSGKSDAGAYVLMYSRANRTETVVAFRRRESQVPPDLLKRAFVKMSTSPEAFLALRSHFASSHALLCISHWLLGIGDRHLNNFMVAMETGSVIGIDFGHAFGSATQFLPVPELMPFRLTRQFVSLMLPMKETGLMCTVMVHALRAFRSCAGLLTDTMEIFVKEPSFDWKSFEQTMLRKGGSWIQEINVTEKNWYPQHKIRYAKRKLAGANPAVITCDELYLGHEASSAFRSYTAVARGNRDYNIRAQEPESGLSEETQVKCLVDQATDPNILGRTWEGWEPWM
# UniProt P27641: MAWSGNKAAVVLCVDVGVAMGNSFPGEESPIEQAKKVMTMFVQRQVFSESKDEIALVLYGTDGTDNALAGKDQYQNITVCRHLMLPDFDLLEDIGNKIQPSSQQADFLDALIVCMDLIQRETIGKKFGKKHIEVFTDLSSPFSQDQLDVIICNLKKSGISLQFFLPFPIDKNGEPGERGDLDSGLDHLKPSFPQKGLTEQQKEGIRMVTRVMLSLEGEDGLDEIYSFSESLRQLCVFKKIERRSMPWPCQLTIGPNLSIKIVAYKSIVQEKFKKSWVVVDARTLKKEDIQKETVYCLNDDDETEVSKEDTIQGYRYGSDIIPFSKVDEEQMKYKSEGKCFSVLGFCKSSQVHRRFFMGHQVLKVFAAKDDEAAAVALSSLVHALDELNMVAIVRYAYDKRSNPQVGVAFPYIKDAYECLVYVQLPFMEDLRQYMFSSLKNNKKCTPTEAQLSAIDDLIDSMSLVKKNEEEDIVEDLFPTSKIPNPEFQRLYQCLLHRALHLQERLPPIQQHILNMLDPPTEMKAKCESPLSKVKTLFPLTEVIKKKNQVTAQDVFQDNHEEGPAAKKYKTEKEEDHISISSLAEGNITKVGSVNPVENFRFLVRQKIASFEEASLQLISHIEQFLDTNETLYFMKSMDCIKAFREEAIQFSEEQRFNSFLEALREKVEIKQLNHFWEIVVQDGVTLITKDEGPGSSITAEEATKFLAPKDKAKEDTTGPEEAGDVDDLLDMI
# UniProt P02340: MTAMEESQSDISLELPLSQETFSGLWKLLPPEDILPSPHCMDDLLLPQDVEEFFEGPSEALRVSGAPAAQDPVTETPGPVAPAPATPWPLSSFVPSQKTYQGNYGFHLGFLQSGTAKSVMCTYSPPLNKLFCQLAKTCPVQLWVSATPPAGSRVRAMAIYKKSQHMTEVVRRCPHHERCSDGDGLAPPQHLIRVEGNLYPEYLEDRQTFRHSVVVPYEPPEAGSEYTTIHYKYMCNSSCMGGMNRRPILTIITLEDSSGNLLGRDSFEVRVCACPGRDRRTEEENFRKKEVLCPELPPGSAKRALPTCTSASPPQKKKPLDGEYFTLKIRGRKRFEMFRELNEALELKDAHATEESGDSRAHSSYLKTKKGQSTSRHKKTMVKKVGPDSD
# These are yes or no findings as the source states them, for the method shown. Binding seen in cells or lysates may run through a third protein. Some results given as binding are weak or reduced against the parent protein; the word gives no strength.
# Tests used:
# [1] = target: DNA-dependent protein kinase catalytic subunit (mouse (endogenous in primary hepatocytes)) (UniProt P97313); assay: co-IP; endogenous proteins of primary hepatocytes after exposure to alcohol stress; DNA-PKcs as bait
# [2] = target: DNA-dependent protein kinase catalytic subunit (mouse (endogenous in primary hepatocytes)) (UniProt P97313); assay: co-IP; endogenous proteins of primary hepatocytes; DNA-PKcs as bait; cells under normal conditions, with alcohol, or with alcohol and NR4A1 siRNA
binding [1],binding [2],Substance
binds weakly,binds,Ku80 (from UniProt P27641 1-732)
–,binds,p53 (from UniProt P02340 1-390)
